Our source for the AC50 values is PubChem BioAssay AID1487 (National Center for Advancing Translational Sciences (NCATS), 2009).

Values joined by “and” are separate entries in the source; they are usually repeats but may differ in a detail not shown here. Identical values can stand only once. The list shows a part of the results. Shown are side measurements of this screen, not its main read-out; they come without a call. The list favours compounds with an active or inconclusive main result. The note in brackets gives the kind of curve behind each potency; many fits are weak.

This assay is described as follows: qHTS Assay for Modulators of Lamin A Splicing. Particulars: HeLa LMNA splicing GFP/RFP minigene ratio, 48 h. An outline of the steps:
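S3 HeLa stable clones carrying a lamin A-EGFP splicing minigene plus DsRed2 were seeded at 600 cells/well in Opti-MEM with 2% FBS, pin-dosed and incubated 48 h at 37°C. Acumen cytometry (488 nm) gave the GFP/RFP total-intensity ratio.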
On the technique in general: qHTS replaces the single test concentration by a dilution series.

[1] abbreviates: measured here: RFP viability control channel.
Setting [2] is: measured here: GFP splicing reporter channel.

As to `C(=C\c1ccccc1)/C=N/Nc1nc2ccccc2[nH]1`, the concentration at half-maximal activity (AC50) under setting [1] was 6.31 µM [rising, full curve, poor fit].
On to `Cc1ccc(CNC(=O)c2ccc(COc3ccccc3)cc2)cc1`, for which the AC50 under setting [2] was 12.6 µM [rising, single point] and the AC50 under setting [1] was 11.2 µM [rising, single point].
On to `CN(CCn1ccnc1)Cc1cn(-c2ccccc2)nc1-c1ccc2c(c1)OCO2`, for which the AC50 under setting [2] is 0.178 µM [falling, full curve, poor fit].
As for `O=C(NNS(=O)(=O)c1cccc(Cl)c1)c1cc(-c2ccc(F)cc2)nc2ccccc12`, the AC50 under setting [2] is 0.794 µM [falling, full curve, poor fit].
Regarding `Cc1nc2c(cnn2-c2ccccc2Cl)c(=O)n1-c1ccc(C(C)C)cc1`, the AC50 is 35.5 µM [rising, single point] under setting [2] and 25.1 µM [rising, single point] under setting [1].
In the case of `O=C(Nc1ccc2c(c1)oc1ccccc12)c1ccncc1`, under setting [1], the AC50 is 10 µM [rising, single point].
On to `CCCCC(=O)c1c(O)c2ccccc2oc1=O`, for which the half-maximal activity concentration (AC50) under setting [1] is 14.1 µM [rising, single point].
Regarding `O=C(NC(=S)N1CCN(c2nc(-c3ccccc3)cs2)CC1)c1cccnc1`, the AC50 under setting [2] is 17.8 µM [rising, single point].
In the case of `O=C(CCCc1nc(-c2ccccc2Cl)no1)NCc1cccnc1`, the AC50 under setting [1] is 31.6 µM [rising, single point].
Take `CCOC(=O)/C(C#N)=C/c1cccc([N+](=O)[O-])c1`: under setting [2], the AC50 was 3.98 µM [rising, full curve, poor fit].
With `Cc1noc(C)c1COC(=O)c1cccc(S(=O)(=O)N2CCCCCC2)c1`, the AC50 under setting [1] is 11.2 µM [rising, partial curve].
Regarding `Cc1cc(C)c(C(=O)CSc2nc(C)cc(C)c2C(N)=O)c(C)c1`, the AC50 reads like this: under setting [2], 35.5 µM [rising, single point]; under setting [1], 35.5 µM [rising, single point].
With `CCNc1ncc2nc(-c3ccccc3)c(=O)n(C[C@H]3CCCO3)c2n1`, the AC50 under setting [2] was 12.6 µM [falling, single point].
Still for that read-out and setting: for `COc1cccc(C2N(c3ccccc3)CCN2c2ccccc2)c1OC` the value was 0.0224 µM [rising, full curve, poor fit].
Take `O=C1c2ccccc2S(=O)(=O)N1CC1CC(c2ccc(Cl)cc2)=NO1` (stereo not drawn): the AC50 is 11.2 µM [rising, partial curve] under setting [2] and 10 µM [rising, partial curve] under setting [1].
On to `Nc1ccn([C@@H]2O[C@H](CO)[C@@H](O)[C@@H]2O)c(=O)n1`, for which the AC50 was 0.0316 µM [falling, full curve] under setting [2]; 112 nM [rising, full curve, poor fit] and 1 µM [rising, full curve] under setting [1].
In the case of `COc1ccc(N2CCN(c3nc4ccccc4n3CC(=O)c3ccccc3)CC2)cc1`, the AC50 was 8.91 µM [rising, partial curve, poor fit] under setting [2] and 11.2 µM [rising, partial curve] under setting [1].
For the molecule `CC(C)c1ccc2c(c1)C1Cc3ccccc3C1N2` (stereo not drawn), under setting [1], the AC50 was 15.8 µM [rising, single point].
Turning to `CCOC(=O)c1c(N)n(-c2ccc(C)c(C)c2)c2nc3ccccc3nc12`, the AC50 under setting [1] was 14.1 µM [falling, single point].
`Cc1[nH][nH]c(=O)c1C(c1ccc(-c2ccc(F)cc2)o1)c1c(C)[nH][nH]c1=O`: the AC50 was 35.5 µM [falling, partial curve, poor fit] under setting [2] and 35.5 µM [falling, partial curve, poor fit] under setting [1].
For `O=c1[nH][nH]c(-c2ccccc2O)c1C(C[N+](=O)[O-])c1cccc(Cl)c1` (stereo not drawn), under setting [1], the concentration at half-maximal activity (AC50) was 17.8 µM [rising, single point].
Regarding `COc1ccccc1OCc1csc(NC(=O)c2ccco2)n1`, the AC50 under setting [2] was 11.2 µM [rising, partial curve] and the AC50 under setting [1] was 15.8 µM [rising, partial curve].
As for `CCN1c2ccccc2-c2nc3ccccc3n2C1c1cccnc1` (stereo not drawn), the half-maximal activity concentration (AC50) was 35.5 µM [rising, single point] under setting [2] and 35.5 µM [rising, single point] under setting [1].
As to `CCN(CC)S(=O)(=O)c1ccc(NC(=O)c2ccc(CN3CCOCC3)cc2)cc1`, the AC50 under setting [1] was 1.58 µM [rising, full curve].
For the molecule `O=C(Cn1ncc2c1-c1ccccc1OC2)N1CCc2ccccc21`, the AC50 under setting [1] was 31.6 µM [rising, single point].
In the case of `O=C(NCc1ccc2c(c1)CCN2C(=O)c1ccc(F)cc1)c1ccc(Br)o1`, the AC50 under setting [1] was 0.00355 µM [falling, full curve, poor fit].
Take `NS(=O)(=O)c1ccc(NC(=O)CN2CCCC2)cc1`: under setting [2], the AC50 was 0.0158 µM [falling, full curve, poor fit].
For `CCCOc1cccc(OCCSc2nc(C)cc(=O)[nH]2)c1`, the AC50 is, setting by setting: under setting [2], 22.4 µM [rising, partial curve, poor fit]; under setting [1], 35.5 µM [rising, partial curve].
`O=S(=O)(Nc1ccc(-c2csc(-c3ccccc3)n2)cc1)c1ccccc1`: the AC50 under setting [2] is 35.5 µM [falling, single point].
Regarding `COc1ccccc1NC(=O)C1=C(C)Nc2c(C(=O)Nc3ccc(F)cc3)cnn2C1c1ccc(Cl)cc1` (stereo not drawn), under setting [2], the AC50 was 10 µM [falling, partial curve].
For the molecule `CN1c2ccccc2C(O)=C(C(=S)Nc2ccc(F)c(Cl)c2)S1(=O)=O`, under setting [1], the AC50 is 14.1 µM [rising, single point].
On the same count and under the same terms, for `O=C(Nc1ccccc1)Nc1ncc([N+](=O)[O-])s1` the value was 5.62 µM [rising, partial curve].
The same measure, in the same setting: the value for `c1ccc(-n2ncc3c(NCc4cccnc4)ncnc32)cc1` was 17.8 µM [rising, single point].
For the molecule `Fc1ccc(-c2cc(C(F)(F)F)nc(NCc3cccs3)n2)cc1`, the AC50 is 25.1 µM [rising, single point] under setting [2] and 22.4 µM [rising, single point] under setting [1].
In the case of `Cc1ccc(C(C)(C)C)cc1S(=O)(=O)NC(=O)c1ccccc1`, the AC50 under setting [1] was 0.447 µM [falling, full curve].
In the case of `O=C(Nc1cc(F)ccc1F)C1CCN(c2nc3ccccc3n3cccc23)CC1`, the AC50 under setting [2] was 20 µM [falling, partial curve] and the AC50 under setting [1] was 22.4 µM [falling, partial curve].

The AC50 is the midpoint of the concentration-response curve, whichever way the signal moves.
